{"sequences": {"note": "Sequences of proteins named here, by UniProt entry; tags and fusion partners are left off.", "UniProt P06493": "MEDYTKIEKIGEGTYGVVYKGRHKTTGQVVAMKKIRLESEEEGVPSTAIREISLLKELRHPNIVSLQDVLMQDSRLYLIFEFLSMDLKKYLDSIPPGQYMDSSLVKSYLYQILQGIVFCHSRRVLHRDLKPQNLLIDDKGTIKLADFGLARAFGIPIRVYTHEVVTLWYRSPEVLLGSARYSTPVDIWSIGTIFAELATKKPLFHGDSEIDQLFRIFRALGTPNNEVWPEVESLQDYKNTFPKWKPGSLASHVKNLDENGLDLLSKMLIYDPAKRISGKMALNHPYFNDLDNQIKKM", "UniProt P12004": "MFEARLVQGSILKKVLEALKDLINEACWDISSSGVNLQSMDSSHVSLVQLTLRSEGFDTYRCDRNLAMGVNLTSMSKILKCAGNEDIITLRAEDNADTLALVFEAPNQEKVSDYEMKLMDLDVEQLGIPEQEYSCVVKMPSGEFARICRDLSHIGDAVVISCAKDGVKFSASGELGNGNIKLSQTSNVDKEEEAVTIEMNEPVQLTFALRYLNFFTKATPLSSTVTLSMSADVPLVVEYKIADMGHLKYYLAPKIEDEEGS", "UniProt P38936": "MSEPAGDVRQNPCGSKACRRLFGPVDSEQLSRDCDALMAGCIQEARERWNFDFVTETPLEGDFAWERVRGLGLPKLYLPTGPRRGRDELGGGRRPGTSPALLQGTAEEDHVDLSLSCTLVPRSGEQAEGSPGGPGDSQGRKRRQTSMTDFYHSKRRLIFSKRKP"}, "source": "patent US7005419", "binders": {"B1": {"name": "full length recombinant GADD45 (rGADD45) (protein)", "chain": "MTLEEFSAGEQKTERMDKVGDALEEVLSKALSQRTITVGVYEAAKLLNVDPDNVVLCLLAADEDDDRDVALQIHFTLIQAFCCENDINILRVSNPGRLAELLLLETDAGPAASEGAEQPPDLHCVLVTNPHSSQWKDPALSQLICFCRESRYMDQWVPVINLPER"}, "B2": {"name": "HA-tagged full length GADD45 (1-165) (protein, not shown: small tags and cut ends)", "chain": "B1 chain"}, "B3": {"name": "GADD45 site-mutagenesis mutant M62-67 (HA-tagged) (protein, not shown: small tags and cut ends)", "chain": "B1 chain with D62A, E63A, D64A, D65A, D66A, R67A"}, "B4": {"name": "GADD45 site-mutagenesis mutant M74-79 (HA-tagged) (protein, not shown: small tags and cut ends)", "chain": "B1 chain with H74A, F75A, T76A, L77A, I78A, Q79A"}, "B5": {"name": "GADD45 site-mutagenesis mutant M82-87 (HA-tagged) (protein, not shown: small tags and cut ends)", "chain": "B1 chain with C82A, C83A, E84A, N85A, D86A, I87A"}, "B6": {"name": "HA-tagged GADD45β (protein, not shown: small tags and cut ends)", "chain": "MTLEELVACDNAAQKMQTVTAAVEELLVAAQRQDRLTVGVYESAKLMNVDPDSVVLCLLAIDEEEEDDIALQIHFTLIQSFCCDNDINIVRVSGMQRLAQLLGEPAETQGTTEARDLHCLLVTNPHTDAWKSHGLVEVASYCEESRGNNQWVPYISLQER"}, "B7": {"name": "HA-tagged GADD45γ (protein, not shown: small tags and cut ends)", "chain": "MTLEEVRGQDTVPESTARMQGAGKALHELLLSAQRQGCLTAGVYESAKVLNVDPDNVTFCVLAAGEEDEGDIALQIHFTLIQAFCCENDIDIVRVGDVQRLAAIVGAGEEAGAPGDLHCILISNPNEDAWKDPALEKLSLFCEESRSVNDWVPSITLPE"}, "B8": {"name": "GADD45 Δ125-166 (protein)", "chain": "MTLEEFSAGEQKTERMDKVGDALEEVLSKALSQRTITVGVYEAAKLLNVDPDNVVLCLLAADEDDDRDVALQIHFTLIQAFCCENDINILRVSNPGRLAELLLLETDAGPAASEGAEQPPDLHC"}, "B9": {"name": "Myc-tag-GADD45 fusion protein (protein, not shown: small tags and cut ends)", "chain": "B1 chain"}}, "key": {"[1]": {"molecular_target": "Cdc2/Cyclin B1 complex (UniProt P06493)", "test": "ELISA, plate coated with 100 ng Cdc2/Cyclin B1 complex, 40 ng rGADD45, anti-GADD45 detection"}, "[2]": {"molecular_target": "Cdc2 (human) (UniProt P06493)", "test": "co-immunoprecipitation with anti-Cdc2 from transfected HCT116 cells, anti-HA immunoblot"}, "[3]": {"molecular_target": "Cdc2 (human) (UniProt P06493)", "test": "co-immunoprecipitation with anti-Cdc2 from transfected HCT116 cells, anti-HA Western blot"}, "[4]": {"molecular_target": "PCNA (human) (UniProt P12004)", "test": "co-immunoprecipitation with anti-PCNA from transfected HCT116 cells, anti-HA Western blot"}, "[5]": {"molecular_target": "p21^Cip1/Wafl (human) (UniProt P38936)", "test": "co-immunoprecipitation with anti-p21 from transfected HCT116 cells, anti-HA Western blot"}, "[6]": {"molecular_target": "p21^Cip1/Wafl (human) (UniProt P38936)", "test": "co-immunoprecipitation from transfected HCT116 cells (Example 8), retold"}, "[7]": {"molecular_target": "Cdc2 (human) (UniProt P06493)", "test": "co-immunoprecipitation from transfected HCT116 cells (Example 8), retold"}, "[8]": {"molecular_target": "Cdc2/Cyclin B1 complex (UniProt P06493)", "test": "ELISA, plate coated with 100 ng Cdc2/Cyclin B1 complex, 40 ng protein, anti-GADD45 detection"}, "[9]": {"molecular_target": "Cdc2 (human) (UniProt P06493)", "test": "co-immunoprecipitation from transfected RKO cells (similar in MCF-7), immunoblot"}}, "note": "Substitutions are numbered along the chain they refer to. Results are given in words; binding and its absence hold for the method and conditions named. For some assays here: In cells and extracts the contact can be indirect. Some results given as binding are weak or reduced against the parent protein; the word gives no strength. For some assays here: Where a sequence is shown, tags or fusion partners need not be part of it."}
{"binder": "B1", "values": [{"measurement": "binding", "setting": "[1]", "result": "binds"}]}
{"binder": "B2", "values": [{"measurement": "binding", "setting": "[2]", "result": "binds"}, {"measurement": "binding", "setting": "[3]", "result": "binds"}, {"measurement": "binding", "setting": "[4]", "result": "binds"}, {"measurement": "binding", "setting": "[5]", "result": "binds"}]}
{"binder": "B3", "values": [{"measurement": "binding", "setting": "[3]", "result": "binds"}, {"measurement": "binding", "setting": "[4]", "result": "binds"}, {"measurement": "binding", "setting": "[6]", "result": "binds"}, {"measurement": "binding", "setting": "[7]", "result": "binds"}, {"measurement": "binding", "setting": "[5]", "result": "binds"}]}
{"binder": "B4", "values": [{"measurement": "binding", "setting": "[3]", "result": "binds"}, {"measurement": "binding", "setting": "[4]", "result": "binds"}, {"measurement": "binding", "setting": "[5]", "result": "binds"}]}
{"binder": "B5", "values": [{"measurement": "binding", "setting": "[3]", "result": "binds"}, {"measurement": "binding", "setting": "[4]", "result": "binds"}, {"measurement": "binding", "setting": "[5]", "result": "binds"}]}
{"binder": "B6", "values": [{"measurement": "binding", "setting": "[2]", "result": "binds"}]}
{"binder": "B7", "values": [{"measurement": "binding", "setting": "[2]", "result": "binds"}]}
{"binder": "B8", "values": [{"measurement": "binding", "setting": "[8]", "result": "binds"}]}
{"binder": "B9", "values": [{"measurement": "binding", "setting": "[9]", "result": "binds"}]}
